Source: article PMC7432475, “β-Carbolines in Experiments on Laboratory Animals” (International Journal of Molecular Sciences, 2020)

Details: stage I

Structure (SMILES)	Water [%] in feces (group NH1 (8 µg NH/kg diet))	Water [%] in feces (group NH2 (12 µg NH/kg diet))	Water [%] in feces (group NH3 (16 µg NH/kg diet))	Water [%] in feces (group H1 (10 µg H/kg diet))	Water [%] in feces (group H2 (15 µg H/kg diet))	Water [%] in feces (group H3 (20 µg H/kg diet))
c1ccc2c(c1)[nH]c1cnccc12 [NH, norharman]	20,70%	22,40%	26,90%	–	–	–
Cc1nccc2c1[nH]c1ccccc12 [H, harman]	–	–	–	21,90%	17,40%	18,30%

Read-outs that look alike come from different tables or passages of the source.
